Measured values published in publication PMC3904858.
No constants are given. Whether binding was seen depends on the method and setting. Binding seen in cells or lysates may run through a third protein. Some entries that bind do so weakly or less than the wild type.

Sequences of proteins named here, by UniProt entry; tags and fusion partners are left off. Residues count along the entry.
UniProt P35579: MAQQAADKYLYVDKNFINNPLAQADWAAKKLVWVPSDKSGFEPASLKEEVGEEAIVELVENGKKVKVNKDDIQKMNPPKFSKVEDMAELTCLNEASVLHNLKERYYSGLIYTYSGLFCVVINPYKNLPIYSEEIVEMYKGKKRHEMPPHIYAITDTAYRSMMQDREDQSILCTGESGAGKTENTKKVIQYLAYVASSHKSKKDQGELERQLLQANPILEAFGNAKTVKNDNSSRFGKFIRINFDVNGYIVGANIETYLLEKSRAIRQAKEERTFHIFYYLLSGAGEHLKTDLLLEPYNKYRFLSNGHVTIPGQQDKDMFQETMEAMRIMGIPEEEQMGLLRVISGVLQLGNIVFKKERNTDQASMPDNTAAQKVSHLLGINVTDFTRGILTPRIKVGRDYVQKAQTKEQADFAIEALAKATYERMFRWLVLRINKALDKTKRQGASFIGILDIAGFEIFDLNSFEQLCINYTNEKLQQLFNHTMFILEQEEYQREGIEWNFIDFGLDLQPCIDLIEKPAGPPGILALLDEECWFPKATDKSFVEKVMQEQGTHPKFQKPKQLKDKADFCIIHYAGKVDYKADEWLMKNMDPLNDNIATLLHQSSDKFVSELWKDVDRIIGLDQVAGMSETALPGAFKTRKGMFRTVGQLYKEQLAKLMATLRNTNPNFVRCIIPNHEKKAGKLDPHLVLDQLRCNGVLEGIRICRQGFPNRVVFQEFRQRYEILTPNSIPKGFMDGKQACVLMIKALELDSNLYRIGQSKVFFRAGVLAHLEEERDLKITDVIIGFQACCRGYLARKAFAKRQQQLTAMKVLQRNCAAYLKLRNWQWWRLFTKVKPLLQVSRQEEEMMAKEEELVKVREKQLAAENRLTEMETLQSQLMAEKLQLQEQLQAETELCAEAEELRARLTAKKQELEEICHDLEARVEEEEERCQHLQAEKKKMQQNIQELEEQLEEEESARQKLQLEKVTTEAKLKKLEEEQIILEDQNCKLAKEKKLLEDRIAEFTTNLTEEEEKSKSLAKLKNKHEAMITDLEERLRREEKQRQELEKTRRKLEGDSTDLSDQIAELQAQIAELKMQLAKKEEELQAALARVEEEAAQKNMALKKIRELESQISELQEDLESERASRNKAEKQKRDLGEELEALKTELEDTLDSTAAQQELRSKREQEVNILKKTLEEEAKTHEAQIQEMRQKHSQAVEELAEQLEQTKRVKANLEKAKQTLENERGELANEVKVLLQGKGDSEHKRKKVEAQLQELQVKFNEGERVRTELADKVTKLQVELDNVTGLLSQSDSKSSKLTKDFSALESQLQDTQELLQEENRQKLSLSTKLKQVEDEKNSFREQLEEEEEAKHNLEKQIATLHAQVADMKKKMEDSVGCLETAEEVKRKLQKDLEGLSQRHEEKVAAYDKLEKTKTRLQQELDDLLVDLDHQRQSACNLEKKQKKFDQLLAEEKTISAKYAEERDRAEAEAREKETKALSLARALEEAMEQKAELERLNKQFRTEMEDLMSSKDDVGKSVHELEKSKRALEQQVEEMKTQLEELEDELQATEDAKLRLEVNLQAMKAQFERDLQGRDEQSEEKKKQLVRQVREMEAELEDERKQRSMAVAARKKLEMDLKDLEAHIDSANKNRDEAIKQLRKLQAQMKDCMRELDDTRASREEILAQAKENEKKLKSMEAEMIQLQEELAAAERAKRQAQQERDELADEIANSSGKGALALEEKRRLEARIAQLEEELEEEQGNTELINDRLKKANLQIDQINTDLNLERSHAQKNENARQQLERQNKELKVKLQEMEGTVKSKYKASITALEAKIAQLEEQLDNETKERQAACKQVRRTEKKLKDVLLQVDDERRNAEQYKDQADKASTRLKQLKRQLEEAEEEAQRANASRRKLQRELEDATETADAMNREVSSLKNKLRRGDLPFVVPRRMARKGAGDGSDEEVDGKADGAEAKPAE
UniProt O00206, residues 24-839: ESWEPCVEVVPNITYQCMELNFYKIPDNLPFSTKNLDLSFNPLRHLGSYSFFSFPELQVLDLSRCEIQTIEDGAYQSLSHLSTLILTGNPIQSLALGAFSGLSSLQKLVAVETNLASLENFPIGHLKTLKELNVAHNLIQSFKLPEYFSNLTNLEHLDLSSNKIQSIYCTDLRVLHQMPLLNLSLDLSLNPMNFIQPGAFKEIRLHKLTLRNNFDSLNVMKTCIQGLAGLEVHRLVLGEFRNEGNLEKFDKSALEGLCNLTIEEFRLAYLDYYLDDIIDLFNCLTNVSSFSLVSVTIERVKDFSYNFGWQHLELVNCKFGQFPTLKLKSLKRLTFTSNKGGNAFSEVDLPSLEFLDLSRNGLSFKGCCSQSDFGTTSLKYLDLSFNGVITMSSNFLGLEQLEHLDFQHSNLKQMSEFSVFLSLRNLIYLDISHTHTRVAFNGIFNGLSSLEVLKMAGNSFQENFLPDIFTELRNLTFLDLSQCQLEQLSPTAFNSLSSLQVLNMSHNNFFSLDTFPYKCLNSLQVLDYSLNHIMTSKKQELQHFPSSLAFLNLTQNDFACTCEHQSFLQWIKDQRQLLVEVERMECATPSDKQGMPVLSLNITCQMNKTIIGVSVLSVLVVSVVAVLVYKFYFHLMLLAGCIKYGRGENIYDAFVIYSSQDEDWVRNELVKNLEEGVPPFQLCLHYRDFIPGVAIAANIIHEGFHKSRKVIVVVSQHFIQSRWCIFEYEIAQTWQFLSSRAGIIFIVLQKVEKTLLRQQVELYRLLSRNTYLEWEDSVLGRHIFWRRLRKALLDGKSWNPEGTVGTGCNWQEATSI

Assays:
Assay in all cases: co-IP; total protein extract of washed human platelets (about 5 mg), precleared with protein A; antibody (anti-myosin-9, anti-TLR4 or anti-Rab7b) at 4°C for 16 hrs, protein A sepharose; Western blot; platelets untreated or treated with thrombin or CaCl2, with or without calpeptin pretreatment
[1] = target: myosin heavy chain-9 (myosin-9) (human (endogenous in platelets)) (UniProt P35579)
[2] = target: T1, Rab7b (human (endogenous in platelets)) (UniProt Q96AH8)
T1 sequence: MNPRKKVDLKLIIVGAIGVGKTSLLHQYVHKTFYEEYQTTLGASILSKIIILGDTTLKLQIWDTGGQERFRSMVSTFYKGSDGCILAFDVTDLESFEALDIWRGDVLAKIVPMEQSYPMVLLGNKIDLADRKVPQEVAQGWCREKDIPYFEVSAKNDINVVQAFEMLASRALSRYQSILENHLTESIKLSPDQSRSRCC

[3] = target: Toll-like receptor 4 (human (endogenous in platelets)) (UniProt O00206)

Row | binding [1] | binding [2] | binding [3] | Substance
1 | binds |  |  | Toll-like receptor 4 (from UniProt O00206 24-839)
2 |  | binds | binds | myosin heavy chain-9 (myosin-9) (from UniProt P35579 1-1960)
